{"source": "paper PMC10882002", "about": "(Nature Communications, 2024)", "assay": "general procedure: Fmoc solid-phase peptide synthesis; Rink amide resin (β-catenin peptides); CEM ProTide Rink amide resin (NEMO peptides); HATU (β-catenin peptides); diisopropylcarbodiimide/Oxyma pure (NEMO peptides)", "settings": "whole synthesis, UPLC 214 nm, scale of the general procedure 25 μmol (NEMO peptides), side-chain lactam ring, sequence written open", "note": "Where a sequence shows no end group, the ends are not given."}
{"sequence": "YPEDILDKHLQRV", "values": [{"measurement": "final HPLC purity", "result": 97.9, "unit": "%"}]}
